From patent US20130224300A1, “COMPOSITIONS AND METHODS THEREOF FOR ORAL ADMINISTRATION OF DRUGS” (priority 2011, published 2013)

Experiment: clinical
Conditions: human, plasma, po, 35 mg

With `CN1C(=O)CN=C(c2ccccc2)c2cc(Cl)ccc21` [diazepam] the Cmax was roughly 270 ng/mL and the Tmax was roughly 1.5 h.
